These are yes or no findings as the source states them, for the method shown. In cells and extracts the contact can be indirect. A result given as binding can be weak or reduced; the word gives no strength. Sequences can lack the tags named with a protein.
Molecular target: MsParA (Ms6939), endogenous in M. smegmatis (M. smegmatis (endogenous in M. smegmatis)) (UniProt A0R7J4)
Test: co-IP

Amino acid sequences for entries named in this document (tags omitted). A change or cut given only in a name is not applied to a line headed by its entry.
UniProt A0R7J4: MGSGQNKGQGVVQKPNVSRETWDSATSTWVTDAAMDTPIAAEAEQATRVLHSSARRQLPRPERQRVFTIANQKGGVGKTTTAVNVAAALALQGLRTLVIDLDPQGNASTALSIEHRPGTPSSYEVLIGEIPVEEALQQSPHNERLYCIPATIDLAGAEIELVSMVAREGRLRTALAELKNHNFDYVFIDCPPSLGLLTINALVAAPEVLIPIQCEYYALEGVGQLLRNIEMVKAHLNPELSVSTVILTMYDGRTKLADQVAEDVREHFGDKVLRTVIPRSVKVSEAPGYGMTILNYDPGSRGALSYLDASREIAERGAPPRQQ

B1: MtTAG (Rv1210) expressed in M. smegmatis (enzyme, UniProt L7N613 1-204)
chain: MSGDGLVRCPWAEVRPGPDAQLYRDYHDNEWGRPLYGRVALFERMSLEAFQSGLSWLIILRKRENFRRAFSGFDIDKIARYTDTDVRRLLADDGIVRNRAKIEATIANARAAADLGSSEDLSELLWSFAPPPRPRPVDGSEIPSVSTESKAMSRELKRRGFRFVGPTTAYALMQATGMVDDHIQACWVPTERPFDQPGCPMAAR
For B1, the binding was “binds”.

Reference: article PMC3366916, “Characterization of a Conserved Interaction between DNA Glycosylase and ParA in Mycobacterium smegmatis and M. tuberculosis” (PLoS ONE, 2012)
